The source of these data is article PMC11530239.

By UniProt entry, the sequences of proteins in these tests, tags left out.
UniProt Q9NPJ4: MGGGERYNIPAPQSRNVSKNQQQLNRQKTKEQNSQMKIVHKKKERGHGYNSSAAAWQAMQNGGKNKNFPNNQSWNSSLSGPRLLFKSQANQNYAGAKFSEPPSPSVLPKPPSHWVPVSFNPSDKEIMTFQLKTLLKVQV
UniProt Q12796: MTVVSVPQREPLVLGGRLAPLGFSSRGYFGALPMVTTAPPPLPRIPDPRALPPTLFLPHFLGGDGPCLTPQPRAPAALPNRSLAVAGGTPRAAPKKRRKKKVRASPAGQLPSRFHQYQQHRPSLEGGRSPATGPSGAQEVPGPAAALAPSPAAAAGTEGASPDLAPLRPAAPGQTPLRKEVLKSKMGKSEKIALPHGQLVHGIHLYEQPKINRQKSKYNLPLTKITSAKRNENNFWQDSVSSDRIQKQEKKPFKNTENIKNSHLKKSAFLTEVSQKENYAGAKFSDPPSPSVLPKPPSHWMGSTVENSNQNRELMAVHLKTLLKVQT

For one test, the target named is GFP-tagged DCP2 (human) (UniProt Q8IU60). Kind of test: co-IP; GFP-DCP2 with HA-PNRC1 or V5-tagged PNRC2 in HEK-293T wild-type or DCP1a/b-knockout cells; immunoprecipitated with anti-GFP antibodies; RNase A; NET buffer; western blot.
Test [1] has as its target V5-Streptavidin-Binding Peptide (SBP)-DCP2 (human) (UniProt Q8IU60). Kind of test: pull-down; as a1, but V5-SBP-DCP2 expressed in DCP1a/b-null HEK-293T cells (no DCP1a, no DCP1b); streptavidin beads; RNase A; western blot of endogenous decapping factors. For orientation: In western blotting, separated proteins are transferred to a membrane and probed.
For test [2] the target is unchanged. Description: pull-down; V5-SBP-DCP2 expressed in HEK-293T wild-type cells (for EDC4 also DCP1a/b-null cells), purified on streptavidin beads; endogenous decapping factors detected by western blot; RNase A added to the cell extract; NET buffer (50 mM Tris-HCl pH 7.5, 150 mM NaCl, 1 mM EDTA, 0.1% Triton-X-100, 10% glycerol).

No constants are given. Whether binding was seen depends on the method and setting. In cells and extracts the contact can be indirect. Some binding calls cover weakened binding; strength is not graded here.

In the case of “V5-tagged PNRC2 (from UniProt Q9NPJ4 1-139)”, in the test with GFP-tagged DCP2 (human), the binding entry is given as “binds”. For the molecule “HA-tagged PNRC1 (from UniProt Q12796 1-327)”, the binding result in the test with GFP-tagged DCP2 (human) is “binds”.

B1: PatL1 (protein, UniProt Q86TB9 1-770)
chain: MFRYESLEDCPLDEDEDAFQGLGEEDEEIDQFNDDTFGSGAVDDDWQEAHERLAELEEKLPVAVNEQTGNGERDEMDLLGDHEENLAERLSKMVIENELEDPAIMRAVQTRPVLQPQPGSLNSSIWDGSEVLRRIRGPLLAQEMPTVSVLEYALPQRPPQGPEDDRDLSERALPRRSTSPIIGSPPVRAVPIGTPPKQMAVPSFTQQILCPKPVHVRPPMPPRYPAPYGERMSPNQLCSVPNSSLLGHPFPPSVPPVLSPLQRAQLLGGAQLQPGRMSPSQFARVPGFVGSPLAAMNPKLLQGRVGQMLPPAPGFRAFFSAPPSATPPPQQHPPGPGPHLQNLRSQAPMFRPDTTHLHPQHRRLLHQRQQQNRSQHRNLNGAGDRGSHRSSHQDHLRKDPYANLMLQREKDWVSKIQMMQLQSTDPYLDDFYYQNYFEKLEKLSAAEEIQGDGPKKERTKLITPQVAKLEHAYKPVQFEGSLGKLTVSSVNNPRKMIDAVVTSRSEDDETKEKQVRDKRRKTLVIIEKTYSLLLDVEDYERRYLLSLEEERPALMDDRKHKICSMYDNLRGKLPGQERPSDDHFVQIMCIRKGKRMVARILPFLSTEQAADILMTTARNLPFLIKKDAQDEVLPCLLSPFSLLLYHLPSVSITSLLRQLMNLPQSAATPALSNPHLTAVLQNKFGLSLLLILLSRGEDLQSSDPATESTQNNQWTEVMFMATRELLRIPQAALAKPISIPTNLVSLFSRYVDRQKLNLLETKLQLVQGIR
As for B1, the binding entry in test [1] is given as “binds weakly”.

B2: EDC3 (protein, UniProt Q96F86 1-508)
chain: MATDWLGSIVSINCGDSLGVYQGRVSAVDQVSQTISLTRPFHNGVKCLVPEVTFRAGDITELKILEIPGPGDNQHFGDLHQTELGPSGAGCQVGINQNGTGKFVKKPASSSSAPQNIPKRTDVKSQDVAVSPQQQQCSKSYVDRHMESLSQSKSFRRRHNSWSSSSRHPNQATPKKSGLKNGQMKNKDDECFGDDIEEIPDTDFDFEGNLALFDKAAVFEEIDTYERRSGTRSRGIPNERPTRYRHDENILESEPIVYRRIIVPHNVSKEFCTDSGLVVPSISYELHKKLLSVAEKHGLTLERRLEMTGVCASQMALTLLGGPNRLNPKNVHQRPTVALLCGPHVKGAQGISCGRHLANHDVQVILFLPNFVKMLESITNELSLFSKTQGQQVSSLKDLPTSPVDLVINCLDCPENVFLRDQPWYKAAVAWANQNRAPVLSIDPPVHEVEQGIDAKWSLALGLPLPLGEHAGRIYLCDIGIPQQVFQEVGINYHSPFGCKFVIPLHSA
Consider B2, for which, in test [1], the binding result is on record as “binds weakly”.

B3: EDC4 (protein, UniProt Q6P2E9 1-1401)
chain: MASCASIDIEDATQHLRDILKLDRPAGGPSAESPRPSSAYNGDLNGLLVPDPLCSGDSTSANKTGLRTMPPINLQEKQVICLSGDDSSTCIGILAKEVEIVASSDSSISSKARGSNKVKIQPVAKYDWEQKYYYGNLIAVSNSFLAYAIRAANNGSAMVRVISVSTSERTLLKGFTGSVADLAFAHLNSPQLACLDEAGNLFVWRLALVNGKIQEEILVHIRQPEGTPLNHFRRIIWCPFIPEESEDCCEESSPTVALLHEDRAEVWDLDMLRSSHSTWPVDVSQIKQGFIVVKGHSTCLSEGALSPDGTVLATASHDGYVKFWQIYIEGQDEPRCLHEWKPHDGRPLSCLLFCDNHKKQDPDVPFWRFLITGADQNRELKMWCTVSWTCLQTIRFSPDIFSSVSVPPSLKVCLDLSAEYLILSDVQRKVLYVMELLQNQEEGHACFSSISEFLLTHPVLSFGIQVVSRCRLRHTEVLPAEEENDSLGADGTHGAGAMESAAGVLIKLFCVHTKALQDVQIRFQPQLNPDVVAPLPTHTAHEDFTFGESRPELGSEGLGSAAHGSQPDLRRIVELPAPADFLSLSSETKPKLMTPDAFMTPSASLQQITASPSSSSSGSSSSSSSSSSSLTAVSAMSSTSAVDPSLTRPPEELTLSPKLQLDGSLTMSSSGSLQASPRGLLPGLLPAPADKLTPKGPGQVPTATSALSLELQEVEPLGLPQASPSRTRSPDVISSASTALSQDIPEIASEALSRGFGSSAPEGLEPDSMASAASALHLLSPRPRPGPELGPQLGLDGGPGDGDRHNTPSLLEAALTQEASTPDSQVWPTAPDITRETCSTLAESPRNGLQEKHKSLAFHRPPYHLLQQRDSQDASAEQSDHDDEVASLASASGGFGTKVPAPRLPAKDWKTKGSPRTSPKLKRKSKKDDGDAAMGSRLTEHQVAEPPEDWPALIWQQQRELAELRHSQEELLQRLCTQLEGLQSTVTGHVERALETRHEQEQRRLERALAEGQQRGGQLQEQLTQQLSQALSSAVAGRLERSIRDEIKKTVPPCVSRSLEPMAGQLSNSVATKLTAVEGSMKENISKLLKSKNLTDAIARAAADTLQGPMQAAYREAFQSVVLPAFEKSCQAMFQQINDSFRLGTQEYLQQLESHMKSRKAREQEAREPVLAQLRGLVSTLQSATEQMAATVAGSVRAEVQHQLHVAVGSLQESILAQVQRIVKGEVSVALKEQQAAVTSSIMQAMRSAAGTPVPSAHLDCQAQQAHILQLLQQGHLNQAFQQALTAADLNLVLYVCETVDPAQVFGQPPCPLSQPVLLSLIQQLASDLGTRTDLKLSYLEEAVMHLDHSDPITRDHMGSVMAQVRQKLFQFLQAEPHNSLGKAARRLSLMLHGLVTPSLP
In the case of B3, the binding entry in test [2] is “binds”.
